Measurements as given in publication PMC9563052.
Results are given in words; binding and its absence hold for the method and conditions named. Some binding calls cover weakened binding; strength is not graded here.

Amino acid sequences for entries named in this document (tags omitted). A change or cut given only in a name is not applied to a line headed by its entry.
UniProt P08514: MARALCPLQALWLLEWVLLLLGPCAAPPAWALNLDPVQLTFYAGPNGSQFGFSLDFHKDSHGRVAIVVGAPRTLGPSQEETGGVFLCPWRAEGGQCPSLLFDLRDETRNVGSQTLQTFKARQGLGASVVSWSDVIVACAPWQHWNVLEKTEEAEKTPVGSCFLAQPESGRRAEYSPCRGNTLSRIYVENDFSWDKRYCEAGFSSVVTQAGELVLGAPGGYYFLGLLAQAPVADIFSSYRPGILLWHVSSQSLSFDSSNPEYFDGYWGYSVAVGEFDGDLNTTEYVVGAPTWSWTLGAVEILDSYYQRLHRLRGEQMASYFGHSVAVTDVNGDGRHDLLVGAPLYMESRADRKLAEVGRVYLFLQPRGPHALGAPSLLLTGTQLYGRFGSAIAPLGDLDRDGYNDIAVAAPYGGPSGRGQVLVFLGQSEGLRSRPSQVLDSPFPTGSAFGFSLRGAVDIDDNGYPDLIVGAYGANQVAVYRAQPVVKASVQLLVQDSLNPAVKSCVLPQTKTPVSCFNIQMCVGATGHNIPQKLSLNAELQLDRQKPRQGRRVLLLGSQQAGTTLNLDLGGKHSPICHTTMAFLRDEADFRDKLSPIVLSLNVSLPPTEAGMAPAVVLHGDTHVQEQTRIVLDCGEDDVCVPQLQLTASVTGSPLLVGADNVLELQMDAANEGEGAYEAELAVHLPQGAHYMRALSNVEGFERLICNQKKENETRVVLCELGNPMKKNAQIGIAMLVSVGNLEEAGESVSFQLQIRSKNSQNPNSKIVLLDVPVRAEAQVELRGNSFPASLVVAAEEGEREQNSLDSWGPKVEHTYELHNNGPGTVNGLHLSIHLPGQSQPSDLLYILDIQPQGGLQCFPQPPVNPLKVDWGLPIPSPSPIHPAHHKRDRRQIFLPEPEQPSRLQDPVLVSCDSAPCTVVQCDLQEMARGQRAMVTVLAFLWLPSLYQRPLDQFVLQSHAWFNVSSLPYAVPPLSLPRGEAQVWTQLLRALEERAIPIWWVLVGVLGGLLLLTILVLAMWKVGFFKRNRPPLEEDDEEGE
UniProt P05106: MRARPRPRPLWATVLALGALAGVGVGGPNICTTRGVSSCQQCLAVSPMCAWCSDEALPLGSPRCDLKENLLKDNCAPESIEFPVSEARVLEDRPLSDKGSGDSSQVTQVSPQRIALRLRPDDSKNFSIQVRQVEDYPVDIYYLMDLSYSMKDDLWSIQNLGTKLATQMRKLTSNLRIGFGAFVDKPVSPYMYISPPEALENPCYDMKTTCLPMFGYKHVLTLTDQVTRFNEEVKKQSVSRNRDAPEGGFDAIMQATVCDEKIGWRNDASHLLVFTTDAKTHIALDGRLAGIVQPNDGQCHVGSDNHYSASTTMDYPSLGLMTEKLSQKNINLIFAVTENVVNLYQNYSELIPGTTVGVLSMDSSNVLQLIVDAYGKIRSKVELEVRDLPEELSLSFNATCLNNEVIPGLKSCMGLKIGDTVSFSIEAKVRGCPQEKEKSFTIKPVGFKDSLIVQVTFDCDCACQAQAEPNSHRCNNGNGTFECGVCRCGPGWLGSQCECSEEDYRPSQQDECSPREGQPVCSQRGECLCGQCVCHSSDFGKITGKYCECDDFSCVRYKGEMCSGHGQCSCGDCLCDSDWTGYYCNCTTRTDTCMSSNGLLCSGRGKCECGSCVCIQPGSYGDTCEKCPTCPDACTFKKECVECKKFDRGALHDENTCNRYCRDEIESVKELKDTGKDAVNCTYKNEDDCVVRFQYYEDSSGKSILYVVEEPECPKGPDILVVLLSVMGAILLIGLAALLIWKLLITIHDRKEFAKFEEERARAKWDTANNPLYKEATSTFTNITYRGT

Target: cell-surface αIIbβ3 on CHO cells (recombinant human αIIbβ3) (human) (UniProt P08514+P05106)
Test: flow cytometry on cells; αIIbβ3-CHO cells in HEPES-Tyrodes buffer/0.02% BSA, 1 mM Ca2+, incubated with chemokines (CCL5, CXCL12 or CX3CL1) 30 min on ice, then FITC-labeled γC390-411 (50 µg/mL) 30 min at room temperature; only the binder purified

binding: binds
Binder: NRLTIGEGQQHHLGGAKQAGDV (FITC-labeled) [FITC-labeled γC390-411]
